# The structures given here were assigned with low confidence; some may be wrong.
# Chains of the proteins cited; added tags and fusions are not shown.
# UniProt Q9Y616, whole entry: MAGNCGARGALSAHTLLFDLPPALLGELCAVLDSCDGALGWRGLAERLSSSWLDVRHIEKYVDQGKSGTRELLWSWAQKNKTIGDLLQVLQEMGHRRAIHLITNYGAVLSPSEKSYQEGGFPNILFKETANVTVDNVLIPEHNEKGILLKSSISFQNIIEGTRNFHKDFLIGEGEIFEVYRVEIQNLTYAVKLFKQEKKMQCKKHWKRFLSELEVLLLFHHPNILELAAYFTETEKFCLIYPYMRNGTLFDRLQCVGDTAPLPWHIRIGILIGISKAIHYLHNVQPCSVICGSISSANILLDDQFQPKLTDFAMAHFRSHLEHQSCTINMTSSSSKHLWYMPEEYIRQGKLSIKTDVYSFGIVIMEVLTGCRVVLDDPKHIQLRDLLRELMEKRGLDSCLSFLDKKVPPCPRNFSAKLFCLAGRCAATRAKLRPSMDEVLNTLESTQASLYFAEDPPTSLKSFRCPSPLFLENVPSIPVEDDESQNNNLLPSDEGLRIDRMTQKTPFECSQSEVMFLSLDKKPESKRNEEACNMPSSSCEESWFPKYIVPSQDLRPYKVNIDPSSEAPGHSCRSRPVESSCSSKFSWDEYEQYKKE
# What was measured:
# IRAK3 [1] = molecular target: T1, IRAK3 (Homo sapiens, UniProt Q9Y616); assay: IRAK endogenous HTRF degradation assay (Total-IRAK3 HTRF kit); conditions: overnight incubation, lowest percentage of protein remaining
# Procedure: Example B2. IRAK Endogenous HTRF Degradation Assay
# Cells (~50 k) were plated in Cisbio 96-well low volume white plates (Cisbio: cat #66PL96005). Compounds were dissolved in DMSO and a 3-fold serial dilution was performed using a TECAN D300E. Cells were incubated with the compound overnight. Total-IRAK3 HTRF kit from Cisbio was used for degradation analysis (Cisbio: 63ADK101PEH). Cryptate and D2 antibodies were diluted in Detection buffer as per manufacturers recommendation. Then 2 μL of each solution was added to 16 μL lysate. […] Post incubation with antibodies the HTRF signal was measured using a Perkin Elmer Envision reader and the HTRF signal was calculated using formula: (Emission at 665 nm/Emission at 615 nm)*10,000. […] Normalized luminescence values were plotted on a graph as a function of compound concentration. […] The EC50 value (the half-maximum effective concentration) of a compound for the degradation of the IRAK3 was calculated using a four-parameter logistic model (sigmoidal dose-response model) (FIT=(A+{(B−A)/1+[(C/x)D]})) where C is the inflection point (EC50), D is the […], and A and B are the low and high limits of the fit, respectively). The Ymin was calculated by determining the lowest percentage of target protein remaining following compound treatment. Dmax was calculated from Ymin (% Dmax=100−Ymin). […]
# IRAK3 [2] = molecular target: T1, IRAK3; assay: IRAK3 biochemical binding assay (LanthaScreen Eu Kinase Binding, TR-FRET); conditions: read-out: IRAK3 binding IC50
# Procedure: Example B3. IRAK3 Biochemical Binding Assay
# The LanthaScreen® Eu Kinase Binding assay was performed as described by the vendor (ThermoFisher Scientific Waltham, MA). Briefly, 100× solutions of compound were prepared in DMSO via serial dilution of the 10 mM stock solution in a 384-well reagent plate using 3-fold intervals to achieve final concentrations. 1 μL of the compound dilution series were added to the corresponding wells of a 384-well reagent plate containing 32.3 μL of 1× buffer (50 mM HEPES pH 7.4, […], 1 mM EGTA, 0.01% Brij-35). 5 μL of the buffer diluted compounds were transferred to the corresponding wells of a 384-well assay plate. 5 μL of 3× tracer was transferred to each well of the assay plate for a final tracer concentration of 10 nM. Finally, 5 μL of the 3×Eu-Anti-GST and IRAK3 mix was transferred to each well for a final concentration of 2 nM and 10 nM respectively. Reactions were allowed to incubate for 1 hour at room temperature. TR-FRET signal of the interaction (λex340/λem 665/λem 615) was read at room temperature with a delay time of 100 ρs and an integration time of 200 ρs using an Envision plate reader. Background corrected emission signal ratios at each compound concentration were used to calculate percentage of inhibition (% Inhibition). […]
# Using these assays, IC50, Dmax, EC50, and DC50 values of the following compounds were determined. […]
structure (smiles),measurement,setting,value
Cc1cc(-c2cnc(Nc3cnn([C@H]4CC[C@@H](CCN5CCN(c6ccc(C7CCC(=O)NC7=O)cc6)C[C@H]5C)CC4)c3)c3nccn23)c(F)cc1F (stereo partly drawn),IRAK3 HTRF degradation Ymin,IRAK3 [1],19%
same,IC50,IRAK3 [2],8.2 nM
O=C1CCC(c2ccc(N3CCN(C(=O)CN4CCC(n5cc(Nc6ncc(-c7ccc8c(c7)NC(=O)CO8)n7ccnc67)cn5)CC4)CC3)cc2)C(=O)N1 (stereo not drawn),IRAK3 HTRF degradation Ymin,IRAK3 [1],24%
